Reference: patent US5831002A (BASF Aktiengesellschaft, priority 1995, dated 1998)
Some peptides are written in HELM: one residue between dots, names in brackets for other building blocks, links after the first $.

Key:
[1] = Fmoc solid-phase peptide synthesis; Fmoc-RINK-resin; PyBrop for the residue after an N-methylamino acid (SPPS); EDCI/HOBt (solution); conditions: whole synthesis, scale 0.84 mmol
[2] = Fmoc solid-phase peptide synthesis; Fmoc-Pro-p-alkoxybenzyl-alcohol-resin; PyBrop for the residue after an N-methylamino acid (SPPS); EDCI/HOBt (solution); conditions: whole synthesis, scale 3 mmol

Q: For “PEPTIDE1{[Me2Val].V.[MeVal].P.P.V.F.[am]}$$$$V2.0”, which crude mass [1] is on record?
A: 590 mg

Q: What about the isolated mass [1] of the same substance?
A: 295 mg

Q: Which crude mass [2] does the source give for “PEPTIDE1{[Me2Val].V.[MeVal].P.[NH-CH(Bzl)-thiazol-2-yl]}$$$$V2.0” here?
A: 750 mg
